From paper PMC5175153 come the findings set out here.

Sequences of proteins named here, by UniProt entry; tags and fusion partners are left off.
UniProt O14867: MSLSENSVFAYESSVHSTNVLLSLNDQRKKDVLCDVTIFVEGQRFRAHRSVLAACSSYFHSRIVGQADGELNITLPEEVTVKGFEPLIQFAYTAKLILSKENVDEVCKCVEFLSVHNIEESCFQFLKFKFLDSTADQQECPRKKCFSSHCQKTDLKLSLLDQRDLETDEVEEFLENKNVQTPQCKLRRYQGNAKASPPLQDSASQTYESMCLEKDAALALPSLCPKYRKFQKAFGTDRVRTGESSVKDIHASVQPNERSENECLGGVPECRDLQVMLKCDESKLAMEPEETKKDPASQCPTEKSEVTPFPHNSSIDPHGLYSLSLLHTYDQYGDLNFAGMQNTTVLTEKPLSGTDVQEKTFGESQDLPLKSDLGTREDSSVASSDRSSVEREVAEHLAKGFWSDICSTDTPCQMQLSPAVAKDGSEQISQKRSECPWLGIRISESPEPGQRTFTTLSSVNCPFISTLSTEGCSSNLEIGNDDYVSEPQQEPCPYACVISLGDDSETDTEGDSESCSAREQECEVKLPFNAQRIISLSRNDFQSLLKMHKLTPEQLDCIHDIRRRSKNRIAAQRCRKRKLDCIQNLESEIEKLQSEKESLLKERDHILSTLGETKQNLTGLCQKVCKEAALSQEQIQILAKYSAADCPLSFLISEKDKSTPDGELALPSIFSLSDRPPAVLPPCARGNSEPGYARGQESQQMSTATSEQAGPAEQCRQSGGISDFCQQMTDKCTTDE
UniProt P08047: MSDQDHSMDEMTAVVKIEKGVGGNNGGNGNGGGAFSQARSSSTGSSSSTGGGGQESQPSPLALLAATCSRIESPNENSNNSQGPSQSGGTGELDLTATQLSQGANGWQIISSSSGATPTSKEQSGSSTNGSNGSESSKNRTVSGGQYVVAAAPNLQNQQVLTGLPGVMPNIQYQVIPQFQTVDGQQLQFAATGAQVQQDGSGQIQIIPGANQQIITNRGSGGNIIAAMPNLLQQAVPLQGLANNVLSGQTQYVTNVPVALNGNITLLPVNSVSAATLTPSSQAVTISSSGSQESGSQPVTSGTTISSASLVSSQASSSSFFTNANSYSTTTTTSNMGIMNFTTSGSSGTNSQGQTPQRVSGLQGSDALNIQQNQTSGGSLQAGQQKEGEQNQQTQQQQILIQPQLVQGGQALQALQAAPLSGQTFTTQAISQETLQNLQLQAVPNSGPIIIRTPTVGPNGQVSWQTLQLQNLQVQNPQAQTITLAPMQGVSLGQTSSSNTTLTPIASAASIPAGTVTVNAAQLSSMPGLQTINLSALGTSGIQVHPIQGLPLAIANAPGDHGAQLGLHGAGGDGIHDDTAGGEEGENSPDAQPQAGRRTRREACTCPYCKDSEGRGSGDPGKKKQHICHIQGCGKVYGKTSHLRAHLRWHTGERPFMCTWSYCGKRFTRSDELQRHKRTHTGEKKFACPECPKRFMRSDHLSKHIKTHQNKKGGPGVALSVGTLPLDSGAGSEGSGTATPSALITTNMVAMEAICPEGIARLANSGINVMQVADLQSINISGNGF

The target of the test is BTB and CNC homology 1 (BACH1), endogenous (human (endogenous in GBM cells)) (UniProt O14867). Nature of the test: co-IP; endogenous proteins; lysates from GBM cells incubated with anti-IgG, anti-p53, anti-SP1 or anti-BACH1 antibody overnight at 4 °C, protein A/G beads; Western blot with anti-p53, anti-SP1 and anti-BACH1.

No constants are given. Whether binding was seen depends on the method and setting. Binding seen in cells or lysates may run through a third protein.

“SP1 (endogenous) (from UniProt P08047 1-785)”: the binding entry was “no binding”.
